# From patent US20160017037A1
# The chains behind the UniProt entries cited, without tags or fusion partners. Residues count along the entry.
# UniProt P18627, residues 23-434: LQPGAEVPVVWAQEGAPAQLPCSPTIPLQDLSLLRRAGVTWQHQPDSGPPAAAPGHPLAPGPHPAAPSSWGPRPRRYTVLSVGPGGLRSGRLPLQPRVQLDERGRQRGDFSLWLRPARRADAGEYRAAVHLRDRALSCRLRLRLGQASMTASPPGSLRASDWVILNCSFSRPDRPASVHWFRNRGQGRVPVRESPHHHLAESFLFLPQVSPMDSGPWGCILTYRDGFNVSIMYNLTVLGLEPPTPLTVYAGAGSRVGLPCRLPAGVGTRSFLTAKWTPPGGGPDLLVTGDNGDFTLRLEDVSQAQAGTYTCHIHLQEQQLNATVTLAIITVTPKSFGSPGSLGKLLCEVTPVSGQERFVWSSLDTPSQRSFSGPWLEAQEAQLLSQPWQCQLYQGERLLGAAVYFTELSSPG
# Substitutions are numbered along the chain they refer to. These are yes or no findings as the source states them, for the method shown. Some entries that bind do so weakly or less than the wild type.
# B1: J0L7 (antibody, human IgG1, kappa, V domains shown)
# VH: QVQLVQSGAEVKKPGSSVKVSCKASGGTFSAYGVNWVRQAPGQGLEWMGMIWDDGSTDYNSALKSRVTITADKSTSTAYMELSSLRSEDTAVYYCAREGDVAFDYWGQGTLVTVSS
# VL: DIQMTQSPSSLSASVGDRVTITCKSSQSLLNPSNQKNYLAWYQQKPGKAPKLLVYFASTRDSGVPSRFSGSGSGTDFTLTISSLQPEDFATYYCLQHFGTPPTFGQGTKLEIKR
# B2: J11L1 (antibody, human IgG1, kappa, V domains shown)
# VH: B1 VH with G27F, T28S, F29L, S30T, N60D
# VL: B1 VL with P32G
# B3: J13L7 (antibody, human IgG1, kappa, V domains shown)
# VH: B1 VH with N60D
# VL: B1 VL
# B4: H5L1 (antibody, human IgG1, kappa, V domains shown)
# VH: QVQLQESGPGLVKPSETLSLTCTVSGFSLTAYGVNWIRQPPGKGLEWIGMIWDDGSTDYDSALKSRVTISVDTSKNQFSLKLSSVTAADTAVYYCAREGDVAFDYWGQGTLVTVSS
# VL: B1 VL with P32G
# B5: H7L7 (antibody, human IgG1, kappa, V domains shown)
# VH: B4 VH with F27G, L29I, T30S
# VL: B1 VL
# B6: J7L1 (antibody, human IgG1, kappa, V domains shown)
# VH: B1 VH with G27F, T28S, F29L, S30T
# VL: B1 VL with P32G
# B7: J13L1 (antibody, human IgG1, kappa, V domains shown)
# VH: B1 VH with N60D
# VL: B1 VL with P32G
# B8: H0L7 (antibody, human IgG1, kappa, V domains shown)
# VH: B4 VH with F27G, L29I, T30S, D60N
# VL: B1 VL
# B9: J11L7 (antibody, human IgG1, kappa, V domains shown)
# VH: B1 VH with G27F, T28S, F29L, S30T, N60D
# VL: B1 VL
# B10: J7L7 (antibody, human IgG1, kappa, V domains shown)
# VH: B1 VH with G27F, T28S, F29L, S30T
# VL: B1 VL
# B11: H1L7 (antibody, human IgG1, kappa, V domains shown)
# VH: B4 VH with D60N
# VL: B1 VL
# B12: H2L7 (antibody, human IgG1, kappa, V domains shown)
# VH: B4 VH with D60N, V71K, T73N, F78V
# VL: B1 VL
# B13: H1L1 (antibody, human IgG1, kappa, V domains shown)
# VH: B4 VH with D60N
# VL: B1 VL with P32G
# B14: H0L1 (antibody, human IgG1, kappa, V domains shown)
# VH: B4 VH with F27G, L29I, T30S, D60N
# VL: B1 VL with P32G
# B15: H4L7 (antibody, human IgG1, kappa, V domains shown)
# VH: B4 VH with I48L, D60N, V67L, V71K, T73N, F78V
# VL: B1 VL
# B16: H7L1 (antibody, human IgG1, kappa, V domains shown)
# VH: B4 VH with F27G, L29I, T30S
# VL: B1 VL with P32G
# B17: J0L1 (antibody, human IgG1, kappa, V domains shown)
# VH: B1 VH
# VL: B1 VL with P32G
# Biological target: Fc-tagged recombinant soluble LAG-3 (IMP321) (human) (UniProt P18627)
# Assay: SPR Biacore 3000, off-rate comparison with IMP731, IMP321 analyte at 64 nM
row,binding,Binder
1,binds,B1
2,binds,B2
3,binds,B3
4,binds,B4
5,binds,B5
6,binds,B6
7,binds,B7
8,binds,B8
9,binds,B9
10,binds,B10
11,binds,B11
12,binds,B12
13,binds,B13
14,binds,B14
15,binds,B15
16,binds,B16
17,binds,B17

# Biological target: Fc-tagged recombinant soluble LAG-3 (IMP321) (human) (UniProt P18627)
# Assay: SPR Biacore 3000, tissue culture supernatants, off-rates compared with IMP731 visually
row,binding,Binder
1,binds,B1
2,binds,B2
3,binds,B3
4,binds,B4
5,binds,B5
6,binds,B6
7,binds,B7
8,binds,B8
9,binds,B9
10,binds,B10
11,binds,B11
12,binds,B12
13,binds,B13
14,binds,B14
15,binds,B15
16,binds,B16
17,binds,B17

# Biological target: Fc-tagged recombinant soluble LAG-3 (IMP321) (human) (UniProt P18627)
# Assay: SPR Biacore 3000, purified antibody captured on anti-human kappa, IMP321 analyte at 64 nM, visual inspection of sensorgrams
row,binding,Binder
1,binds,B1
2,binds,B2
3,binds,B3
4,binds,B4
5,binds,B5
6,binds,B6
7,binds,B7
8,binds,B8
9,binds,B9
10,binds,B10
11,binds,B11
12,binds,B12
13,binds,B13
14,binds,B14
15,binds,B15
16,binds,B16
17,binds,B17
